Experimental data published in patent publication US20060070135A1, “Compositions and methods for inhibiting the enzymatic activity of PTP-1B” (priority 1998, published 2006).

Amino acid sequences for entries named in this document (tags omitted).
UniProt P18031, whole entry: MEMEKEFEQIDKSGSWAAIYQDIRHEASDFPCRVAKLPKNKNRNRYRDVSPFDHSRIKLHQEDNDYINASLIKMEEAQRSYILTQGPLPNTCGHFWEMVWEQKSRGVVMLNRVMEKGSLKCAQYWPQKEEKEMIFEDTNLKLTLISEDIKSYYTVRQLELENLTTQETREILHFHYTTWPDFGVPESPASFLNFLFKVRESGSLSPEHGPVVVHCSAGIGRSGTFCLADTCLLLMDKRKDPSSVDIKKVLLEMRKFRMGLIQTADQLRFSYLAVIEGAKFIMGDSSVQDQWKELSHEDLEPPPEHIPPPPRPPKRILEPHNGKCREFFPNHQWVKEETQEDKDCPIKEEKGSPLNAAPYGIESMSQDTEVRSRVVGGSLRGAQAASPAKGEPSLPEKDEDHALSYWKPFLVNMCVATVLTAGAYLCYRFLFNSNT

Assays:
[1] = biological target: human PTP-1B (PTP-1B-GST fusion protein) (Homo sapiens, UniProt P18031)
[2] = tested on: phosphorylation level of the insulin receptor in CHO-IR cells (endogenous PTP-1B); test: Intact cell assay: insulin receptor phosphorylation level in CHO-IR cells treated with PTP-1B inhibitors and stimulated with insulin; details: at 50 μM, 5 nM insulin
Method: The phosphorylation level of the insulin receptor (IR) was determined in CHO-IR cells (Chinese hamster ovarian cells expressing endogenous PTP-1B and overexpressing human insulin receptor; ATCC, Manassas, Va.) treated with PTP-1B inhibitors and stimulated with 5 nM insulin. CHO-IR cells were grown in F12 media, 10% fetal bovine serum (FBS), and 1% penstrep. All experiments were conducted within the first 12 passages after thawing cells.
On the first day of the experiment, CHO-IR cells were placed in 6-well plates (1/10 of 100 mm confluent plate). Once cells were confluent (˜24 hours later), the cells were starved overnight in 0% fetal bovine serum F12 medium. After the overnight incubation, the medium was changed to fresh 0% F12 30 minutes prior to the addition of inhibitor. A 1 mL aliquote of media containing inhibitor (10, 25 or 50 μM), with a final concentration of 0.1% DMSO, was added to each well. The inhibitors were added directly to the serum-free media, shortly before using them (i.e., the inhibitor was added to cells within 10 minutes of dilution). Cells were incubated with inhibitors for 2-4 hours. […]
Protein quantification was conducted using Bradford reagent (BIO-RAD, Hercules, Calif.). […]
Bands visualized on the blots were quantified using NIH Image 1.62. Quantification was conducted for at least three experiments.

Compound	IC50 [1] [nM]	Intact cell assay: fold-increase over control [2]
O=C(O)c1cc(N2C(=O)c3cccc4c([N+](=O)[O-])ccc(c34)C2=O)cc(N2C(=O)c3cccc4c([N+](=O)[O-])ccc(c34)C2=O)c1	920	–
O=C(O)c1cc(N2C(=O)c3cccc([N+](=O)[O-])c3C2=O)cc(N2C(=O)c3cccc([N+](=O)[O-])c3C2=O)c1	530	Inactive at 50 μM
Cc1ccc(C=C2SC(=S)N(CCC(=O)Nc3ccc(S(=O)(=O)Nc4nccs4)cc3)C2=O)cc1	1460	–

Structures were worked out from names or drawings and are uncertain.
